The numbers were not newly measured in article PMC10873626, “Acceleration of infectious disease drug discovery and development using a humanized model of drug metabolism” (Proceedings of the National Academy of Sciences of the …, 2024), which cites them from elsewhere.

Each structure is given as a SMILES string.

The series relates to CYP. The conditions noted are these: cited from earlier work.

For the compound `O=C(O)c1cn(C2CC2)c2cc(N3CCNCC3)c(F)cc2c1=O` [Ciprofloxacin], the “CYP interaction: Inhibitor” value is reported as 1A2, 2D6.
